Laboratory results published in the supplement of paper PMC10849652.
The list shows a part of the results.

The chains behind the UniProt entries cited, without tags or fusion partners. Where a name states a change or a piece, a line headed by the entry shows the natural chain unless it says otherwise.
UniProt Q99623, whole entry, looked up: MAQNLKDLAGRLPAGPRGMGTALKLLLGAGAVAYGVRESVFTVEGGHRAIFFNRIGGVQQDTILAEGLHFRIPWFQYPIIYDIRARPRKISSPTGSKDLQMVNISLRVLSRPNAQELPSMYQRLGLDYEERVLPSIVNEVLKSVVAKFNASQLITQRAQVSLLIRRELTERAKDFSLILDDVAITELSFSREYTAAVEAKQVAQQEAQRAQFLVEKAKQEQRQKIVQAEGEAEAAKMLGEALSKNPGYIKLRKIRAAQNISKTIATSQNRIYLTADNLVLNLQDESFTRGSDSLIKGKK
UniProt O43175: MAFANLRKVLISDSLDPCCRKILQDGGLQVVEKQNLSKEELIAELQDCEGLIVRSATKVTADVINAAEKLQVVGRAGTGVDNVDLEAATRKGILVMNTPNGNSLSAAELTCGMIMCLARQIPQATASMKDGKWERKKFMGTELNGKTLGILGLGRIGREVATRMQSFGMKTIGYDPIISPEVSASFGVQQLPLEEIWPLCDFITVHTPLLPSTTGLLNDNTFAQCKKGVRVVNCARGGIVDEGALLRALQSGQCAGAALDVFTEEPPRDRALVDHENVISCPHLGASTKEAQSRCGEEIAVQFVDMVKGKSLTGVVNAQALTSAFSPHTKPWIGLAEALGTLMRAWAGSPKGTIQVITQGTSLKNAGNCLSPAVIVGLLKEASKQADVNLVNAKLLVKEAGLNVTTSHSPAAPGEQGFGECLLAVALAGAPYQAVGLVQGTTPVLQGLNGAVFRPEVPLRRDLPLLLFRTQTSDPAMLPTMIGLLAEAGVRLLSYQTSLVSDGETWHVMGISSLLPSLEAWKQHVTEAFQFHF
UniProt Q8IV08: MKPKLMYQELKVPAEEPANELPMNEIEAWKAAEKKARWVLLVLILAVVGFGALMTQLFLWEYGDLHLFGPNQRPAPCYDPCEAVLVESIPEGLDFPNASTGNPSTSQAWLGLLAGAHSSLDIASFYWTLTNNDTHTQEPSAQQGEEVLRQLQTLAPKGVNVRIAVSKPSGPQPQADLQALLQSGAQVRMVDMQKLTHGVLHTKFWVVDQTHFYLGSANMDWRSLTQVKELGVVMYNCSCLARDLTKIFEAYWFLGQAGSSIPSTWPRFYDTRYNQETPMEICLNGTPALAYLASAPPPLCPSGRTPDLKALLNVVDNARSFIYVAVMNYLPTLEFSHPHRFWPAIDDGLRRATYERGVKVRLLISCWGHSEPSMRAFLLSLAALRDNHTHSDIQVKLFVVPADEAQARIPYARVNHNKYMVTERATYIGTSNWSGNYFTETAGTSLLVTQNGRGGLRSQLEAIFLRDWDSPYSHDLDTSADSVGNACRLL
UniProt Q8TBX8: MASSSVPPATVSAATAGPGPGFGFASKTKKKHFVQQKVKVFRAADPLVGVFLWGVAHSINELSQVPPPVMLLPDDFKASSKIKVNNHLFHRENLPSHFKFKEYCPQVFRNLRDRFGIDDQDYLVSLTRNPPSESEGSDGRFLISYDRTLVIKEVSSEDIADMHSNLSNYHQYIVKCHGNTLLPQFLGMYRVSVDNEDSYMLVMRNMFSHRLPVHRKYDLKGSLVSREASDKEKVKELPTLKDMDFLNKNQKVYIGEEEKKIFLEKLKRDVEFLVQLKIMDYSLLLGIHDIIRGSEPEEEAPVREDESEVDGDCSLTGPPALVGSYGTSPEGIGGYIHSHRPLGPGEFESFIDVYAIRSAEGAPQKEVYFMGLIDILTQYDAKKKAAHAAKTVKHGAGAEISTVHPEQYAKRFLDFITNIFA
UniProt Q969N2: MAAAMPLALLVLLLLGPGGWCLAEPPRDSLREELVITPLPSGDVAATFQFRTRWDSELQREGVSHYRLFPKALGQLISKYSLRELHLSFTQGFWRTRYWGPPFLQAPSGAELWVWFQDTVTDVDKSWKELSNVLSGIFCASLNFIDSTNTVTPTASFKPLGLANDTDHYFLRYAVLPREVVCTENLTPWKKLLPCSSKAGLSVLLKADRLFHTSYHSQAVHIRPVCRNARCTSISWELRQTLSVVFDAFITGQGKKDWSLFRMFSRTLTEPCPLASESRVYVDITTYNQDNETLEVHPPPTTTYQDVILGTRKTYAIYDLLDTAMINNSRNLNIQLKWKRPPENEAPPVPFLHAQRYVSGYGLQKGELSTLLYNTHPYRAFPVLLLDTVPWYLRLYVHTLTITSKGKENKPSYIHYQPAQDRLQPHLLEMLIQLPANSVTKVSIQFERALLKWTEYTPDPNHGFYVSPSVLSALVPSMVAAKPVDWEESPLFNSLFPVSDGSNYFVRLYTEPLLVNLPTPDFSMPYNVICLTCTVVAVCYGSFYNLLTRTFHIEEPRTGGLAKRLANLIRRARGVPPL
UniProt Q9NQP4, whole entry, looked up: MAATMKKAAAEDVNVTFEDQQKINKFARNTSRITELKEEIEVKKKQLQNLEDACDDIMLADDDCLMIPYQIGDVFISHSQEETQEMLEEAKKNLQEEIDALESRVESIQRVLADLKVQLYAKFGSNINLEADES
UniProt Q16513: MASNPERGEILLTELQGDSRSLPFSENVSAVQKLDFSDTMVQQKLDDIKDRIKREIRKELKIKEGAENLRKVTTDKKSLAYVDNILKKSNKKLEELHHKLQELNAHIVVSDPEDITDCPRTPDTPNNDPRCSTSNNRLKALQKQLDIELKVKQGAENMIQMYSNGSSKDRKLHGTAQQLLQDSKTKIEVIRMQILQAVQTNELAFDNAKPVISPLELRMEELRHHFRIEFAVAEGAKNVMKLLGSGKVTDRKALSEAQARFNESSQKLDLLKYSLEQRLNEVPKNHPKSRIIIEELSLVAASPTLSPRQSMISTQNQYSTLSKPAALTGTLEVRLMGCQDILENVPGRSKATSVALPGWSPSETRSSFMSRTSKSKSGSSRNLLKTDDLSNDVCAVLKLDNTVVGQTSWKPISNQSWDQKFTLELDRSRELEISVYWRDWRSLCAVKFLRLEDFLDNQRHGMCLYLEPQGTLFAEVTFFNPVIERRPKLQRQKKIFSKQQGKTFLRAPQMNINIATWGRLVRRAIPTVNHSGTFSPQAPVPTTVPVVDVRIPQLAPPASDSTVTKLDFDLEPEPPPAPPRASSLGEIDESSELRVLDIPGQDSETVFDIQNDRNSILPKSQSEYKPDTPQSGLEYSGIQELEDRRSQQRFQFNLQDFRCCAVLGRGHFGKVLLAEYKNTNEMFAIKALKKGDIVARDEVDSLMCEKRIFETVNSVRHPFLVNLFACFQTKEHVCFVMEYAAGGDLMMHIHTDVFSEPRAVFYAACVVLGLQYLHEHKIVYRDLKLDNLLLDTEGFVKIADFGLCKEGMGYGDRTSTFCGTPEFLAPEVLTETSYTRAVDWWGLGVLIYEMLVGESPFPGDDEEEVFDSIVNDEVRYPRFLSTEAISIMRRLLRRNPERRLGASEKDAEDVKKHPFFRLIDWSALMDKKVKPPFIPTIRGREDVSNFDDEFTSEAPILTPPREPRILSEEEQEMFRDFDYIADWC
UniProt Q96BK5: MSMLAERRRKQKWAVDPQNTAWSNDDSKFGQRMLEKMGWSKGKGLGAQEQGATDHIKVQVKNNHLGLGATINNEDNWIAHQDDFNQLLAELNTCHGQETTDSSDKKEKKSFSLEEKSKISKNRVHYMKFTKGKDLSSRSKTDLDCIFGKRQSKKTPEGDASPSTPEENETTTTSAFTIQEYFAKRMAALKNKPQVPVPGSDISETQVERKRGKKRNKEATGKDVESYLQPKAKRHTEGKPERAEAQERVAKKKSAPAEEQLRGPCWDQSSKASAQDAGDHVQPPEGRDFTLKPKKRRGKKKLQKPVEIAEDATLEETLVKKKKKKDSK
UniProt Q99471, whole entry, looked up: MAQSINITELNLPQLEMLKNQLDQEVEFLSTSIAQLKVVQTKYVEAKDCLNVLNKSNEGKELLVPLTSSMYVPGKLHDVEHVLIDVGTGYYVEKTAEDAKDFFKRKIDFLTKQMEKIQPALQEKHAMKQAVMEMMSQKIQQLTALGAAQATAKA
UniProt P52209: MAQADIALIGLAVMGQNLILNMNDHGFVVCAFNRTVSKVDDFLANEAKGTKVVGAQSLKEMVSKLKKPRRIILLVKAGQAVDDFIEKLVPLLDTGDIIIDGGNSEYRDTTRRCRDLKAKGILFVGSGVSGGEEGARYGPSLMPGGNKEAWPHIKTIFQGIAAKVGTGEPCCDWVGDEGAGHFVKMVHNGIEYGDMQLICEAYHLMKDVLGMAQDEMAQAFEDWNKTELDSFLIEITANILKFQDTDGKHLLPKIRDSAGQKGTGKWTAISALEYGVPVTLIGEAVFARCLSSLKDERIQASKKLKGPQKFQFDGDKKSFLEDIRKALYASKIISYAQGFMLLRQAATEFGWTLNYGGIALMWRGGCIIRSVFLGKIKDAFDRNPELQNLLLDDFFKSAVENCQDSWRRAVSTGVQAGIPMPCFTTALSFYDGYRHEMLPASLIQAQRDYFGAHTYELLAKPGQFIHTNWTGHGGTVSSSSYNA
UniProt Q9BZM1: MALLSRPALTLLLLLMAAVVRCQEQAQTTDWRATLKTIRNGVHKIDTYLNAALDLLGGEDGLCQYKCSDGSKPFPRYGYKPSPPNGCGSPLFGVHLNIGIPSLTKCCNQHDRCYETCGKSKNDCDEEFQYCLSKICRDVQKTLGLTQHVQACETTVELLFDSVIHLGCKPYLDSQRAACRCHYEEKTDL
UniProt Q9UG56: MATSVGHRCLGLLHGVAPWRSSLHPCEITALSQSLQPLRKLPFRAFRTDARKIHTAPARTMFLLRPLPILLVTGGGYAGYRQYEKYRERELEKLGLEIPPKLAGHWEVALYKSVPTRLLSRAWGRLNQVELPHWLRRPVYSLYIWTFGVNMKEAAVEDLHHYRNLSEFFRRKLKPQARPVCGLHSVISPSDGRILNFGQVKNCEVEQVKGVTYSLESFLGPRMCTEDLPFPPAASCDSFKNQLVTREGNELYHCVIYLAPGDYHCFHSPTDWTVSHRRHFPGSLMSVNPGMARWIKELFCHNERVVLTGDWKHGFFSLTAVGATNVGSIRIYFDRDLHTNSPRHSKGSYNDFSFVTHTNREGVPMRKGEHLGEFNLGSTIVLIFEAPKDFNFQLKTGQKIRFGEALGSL
UniProt Q13492: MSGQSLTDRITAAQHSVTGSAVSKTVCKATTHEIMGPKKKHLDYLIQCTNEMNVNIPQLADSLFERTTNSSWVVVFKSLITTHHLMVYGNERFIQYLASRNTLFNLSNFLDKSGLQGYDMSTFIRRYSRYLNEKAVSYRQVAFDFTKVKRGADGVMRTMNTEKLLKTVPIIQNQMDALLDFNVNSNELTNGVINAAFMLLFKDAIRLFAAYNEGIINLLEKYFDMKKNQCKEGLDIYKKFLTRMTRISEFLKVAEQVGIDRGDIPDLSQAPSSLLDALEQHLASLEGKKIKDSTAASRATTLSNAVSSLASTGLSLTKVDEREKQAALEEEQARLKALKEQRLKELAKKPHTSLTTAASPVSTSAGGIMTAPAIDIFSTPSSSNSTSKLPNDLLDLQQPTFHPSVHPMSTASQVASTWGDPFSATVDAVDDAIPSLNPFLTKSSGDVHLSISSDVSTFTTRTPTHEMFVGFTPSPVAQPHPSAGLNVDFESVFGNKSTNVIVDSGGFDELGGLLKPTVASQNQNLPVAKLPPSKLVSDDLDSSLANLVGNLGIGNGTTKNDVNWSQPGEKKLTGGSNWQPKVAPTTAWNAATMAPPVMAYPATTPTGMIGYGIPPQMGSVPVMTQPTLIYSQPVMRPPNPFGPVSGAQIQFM
UniProt Q8TCG2: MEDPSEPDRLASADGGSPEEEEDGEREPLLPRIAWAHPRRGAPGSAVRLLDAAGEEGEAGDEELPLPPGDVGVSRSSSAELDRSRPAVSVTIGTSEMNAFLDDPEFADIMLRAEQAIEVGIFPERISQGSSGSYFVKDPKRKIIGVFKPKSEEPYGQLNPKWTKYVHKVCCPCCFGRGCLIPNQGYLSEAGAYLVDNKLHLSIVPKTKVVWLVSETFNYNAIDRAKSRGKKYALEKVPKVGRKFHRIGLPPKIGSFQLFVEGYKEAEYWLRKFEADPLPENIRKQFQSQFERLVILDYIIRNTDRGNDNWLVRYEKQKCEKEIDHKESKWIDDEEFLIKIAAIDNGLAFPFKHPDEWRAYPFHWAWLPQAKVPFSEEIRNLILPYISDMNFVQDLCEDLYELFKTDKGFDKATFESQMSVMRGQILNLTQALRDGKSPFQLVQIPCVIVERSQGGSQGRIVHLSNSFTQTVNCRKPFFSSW
UniProt Q8NCC3: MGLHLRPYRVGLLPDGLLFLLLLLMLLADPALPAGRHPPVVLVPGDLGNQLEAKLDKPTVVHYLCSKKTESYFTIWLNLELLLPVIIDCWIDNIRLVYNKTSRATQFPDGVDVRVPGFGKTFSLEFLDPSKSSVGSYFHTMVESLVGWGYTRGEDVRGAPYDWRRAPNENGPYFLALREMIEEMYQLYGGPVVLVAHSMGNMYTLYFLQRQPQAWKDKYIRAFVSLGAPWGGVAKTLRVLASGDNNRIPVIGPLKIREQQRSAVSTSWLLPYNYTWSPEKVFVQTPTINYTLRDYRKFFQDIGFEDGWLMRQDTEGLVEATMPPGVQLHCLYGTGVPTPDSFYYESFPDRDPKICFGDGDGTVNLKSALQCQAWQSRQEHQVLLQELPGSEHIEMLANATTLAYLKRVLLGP

Legend:
Experiment in all cases: log2 fold change, soluble protein after heating vs DMSO (PISA); higher = thermal stabilisation; K562 cells, 10 uM, 30 min; active = over 0.2 and 3.5 SD of the protein, either way, in both replicates (recomputed)
erlotinib = compound: C#Cc1cccc(Nc2ncnc3cc(OCCOC)c(OCCOC)cc23)c1 [erlotinib]
Procedure, shortened: (§1)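 K562 cells at 2×10^6 cells/mL were treated for 30 min with 10 μM compound, and aliquots were heated for 3 min over 48°C-58°C before pooling. Extraction used PBS with 0.5% NP-40 at 4°C, and soluble protein was the supernatant after 21,000xg for 90 min, measured by TMTpro 16plex LC-MS/MS with channel sums equalised. Thermal stability values, relative to control samples and from duplicates, are log2 fold changes.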

[1] = compound: C/C(=N\NC(=O)C1=CC(=CC=C1)S(=O)(=O)N2CCOCC2)/C3=C(C=CC(=C3)Cl)O
Procedure, shortened: as §1

[2] = compound: C1=CC(=C(C=C1Cl)C2=NC3=NC=CN=C3C(=N2)NC4=CC=NC=C4)F
Procedure, shortened: as §1

[3] = compound: C1=CC(=CC=C1C2=NC3=C(N2)C=C(C=C3)C(=O)N)OC4=CC=C(C=C4)Cl
Procedure, shortened: as §1

[4] = compound: C1=CC2=C(C=CC(=C2)/C=C\3/C(=O)NC(=NCC4=CC=CS4)S3)N=C1
Procedure, shortened: as §1

[5] = compound: C1=CC2=NC=CN=C2C=C1/C=C/3\C(=O)NC(=O)S3
Procedure, shortened: as §1

[6] = compound: C1=CC=C(C=C1)C2=NC(=C(N2)C3=CC=NC=C3)C4=CC(=C(C=C4)Cl)O
Procedure, shortened: as §1

[7] = compound: C1=CC=C2C(=C1)C3=NNC4=CC=CC(=C43)C2=O
Procedure, shortened: as §1

[8] = compound: C1CCN(C1)C(=O)NC2=CC=CC(=C2)NC3=NC=C(C(=N3)NCCC4=CN=CN4)Br
Procedure, shortened: as §1

[9] = compound: C1CN(CCC1(CC2=CC=C(C=C2)Cl)N)C3=NC=NC4=C3C=CN4
Procedure, shortened: as §1

Measured: log2 fold change

PHB2 (UniProt Q99623)
inactive: erlotinib -0.05 | [1] -0.01 | [2] 0.016 | [3] 0.008 | [4] -0.001 | [5] 0.029 | [6] -0.032 | [7] 0.047 | [8] 0.015 | [9] 0.01

PIGQ (UniProt Q9BRB3)
inactive: erlotinib 0.161 | [1] 0.099 | [2] 0.103 | [3] -0.126 | [4] -0.081 | [5] 0.011 | [6] -0.093 | [7] 0.027 | [8] 0.003 | [9] -0.033

PHGDH (UniProt O43175)
inactive: erlotinib -0.014 | [1] 0.042 | [2] 0.079 | [3] 0.004 | [4] -0.04 | [5] -0.064 | [6] -0.003 | [7] 0.024 | [8] -0.003 | [9] 0.032

PFAS (UniProt O15067)
inactive: erlotinib -0.011 | [1] 0.141 | [2] 0.066 | [3] 0.205 | [4] 0.034 | [5] -0.22 | [6] 0.087 | [7] 0.068 | [8] -0.01 | [9] -0.146

PLD3 (UniProt Q8IV08)
inactive: erlotinib -0.012 | [1] 0.029 | [2] 0.054 | [3] 0.023 | [4] 0.04 | [5] 0.024 | [6] -0.061 | [7] 0.006 | [8] 0.001 | [9] 0.048

PIKFYVE (UniProt Q9Y2I7)
inactive: erlotinib -0.174 | [1] 0.111 | [2] 0.082 | [3] 0.082 | [4] -0.007 | [5] 0.075 | [6] 0.04 | [7] -0.014 | [8] 0.037 | [9] -0.108

PIP4K2C (UniProt Q8TBX8)
inactive: erlotinib 0.482 | [1] -0.063 | [2] 0.023 | [3] -0.129 | [4] 0.059 | [5] 0.575 | [6] 0.139 | [7] 0.21 | [8] 0.493 | [9] -0.025

PGM2L1 (UniProt Q6PCE3)
inactive: erlotinib 0.043 | [1] 0 | [2] 0.031 | [3] 0.07 | [4] 0.004 | [5] -0.023 | [6] 0 | [7] -0.025 | [8] 0.024 | [9] 0.025

PIGT (UniProt Q969N2)
inactive: erlotinib -0.045 | [1] 0.037 | [2] 0.002 | [3] 0.034 | [4] 0.009 | [5] -0.001 | [6] 0.011 | [7] 0.018 | [8] -0.006 | [9] -0.003

PI4K2A (UniProt Q9BTU6)
inactive: erlotinib -0.037 | [1] -0.01 | [2] 0.01 | [3] 0.019 | [4] 0.021 | [5] 0.071 | [6] -0.029 | [7] 0.01 | [8] -0.002 | [9] 0.046

PFDN4 (UniProt Q9NQP4)
inactive: erlotinib -0.011 | [1] -0.093 | [2] 0.035 | [3] 0.019 | [4] -0.004 | [5] 0.015 | [6] 0.071 | [7] 0.089 | [8] 0.133 | [9] 0.082

PGAM5 (UniProt Q96HS1)
inactive: erlotinib 0.009 | [1] -0.041 | [2] -0.098 | [3] -0.025 | [4] -0.018 | [5] 0.012 | [6] -0.071 | [7] 0.198 | [8] 0.032 | [9] -0.077

PI4KA (UniProt P42356)
inactive: erlotinib 0.021 | [1] 0.056 | [2] -0.146 | [3] -0.017 | [4] 0.012 | [5] 0.119 | [6] 0.022 | [7] -0.012 | [8] -0.047 | [9] -0.192

PKN2 (UniProt Q16513)
inactive: erlotinib 0.067 | [1] 0.073 | [2] -0.019 | [3] -0.075 | [4] 0.076 | [5] -0.075 | [6] 0.07 | [7] -0.031 | [8] -0.033 | [9] -0.209

PHAX (UniProt Q9H814)
inactive: erlotinib -0.004 | [1] 0.042 | [2] 0.045 | [3] 0.009 | [4] 0.023 | [5] 0.054 | [6] -0.047 | [7] -0.101 | [8] -0.013 | [9] 0.059

PITPNA (UniProt Q00169)
inactive: erlotinib 0.017 | [1] 0.016 | [2] 0.091 | [3] -0.004 | [4] 0.007 | [5] 0.031 | [6] 0.017 | [7] -0.008 | [8] -0.004 | [9] 0.029

PINX1 (UniProt Q96BK5)
inactive: erlotinib -0.115 | [1] -0.288 | [2] -0.673 | [3] -0.08 | [4] -0.138 | [5] 0.134 | [6] -0.095 | [7] -0.112 | [8] 0.214 | [9] 0.02

PFDN5 (UniProt Q99471)
inactive: erlotinib -0.094 | [1] 0.008 | [2] 0.189 | [3] 0.014 | [4] 0.04 | [5] 0.052 | [6] 0.115 | [7] 0.029 | [8] -0.076 | [9] -0.043

PEX19 (UniProt P40855)
inactive: erlotinib -0.002 | [1] -0.028 | [2] 0.02 | [3] 0.002 | [4] -0.046 | [5] 0.027 | [6] 0.023 | [7] -0.004 | [8] -0.022 | [9] 0.034

PGD (UniProt P52209)
inactive: erlotinib 0.025 | [1] 0.02 | [2] 0.086 | [3] 0.009 | [4] -0.015 | [5] -0.014 | [6] -0.018 | [7] 0.034 | [8] 0.021 | [9] 0.045

PLA2G12A (UniProt Q9BZM1)
inactive: erlotinib 0.197 | [1] 0.002 | [2] 0.222 | [3] -0.359 | [4] -0.099 | [5] -0.009 | [6] 0.141 | [7] 0.045 | [8] -0.033 | [9] -0.097

PGGHG (UniProt Q32M88)
inactive: erlotinib 0.059 | [1] 0.114 | [2] 0.024 | [3] 0.002 | [5] 0.048 | [6] -0.049 | [7] -0.248 | [8] -0.225 | [9] 0.119
active: [4] -0.44

PISD (UniProt Q9UG56)
inactive: erlotinib -0.021 | [1] -0.055 | [2] 0.026 | [3] 0.089 | [4] 0.034 | [5] 0.023 | [6] 0.02 | [7] 0.058 | [8] 0.009 | [9] -0.004

PKLR (UniProt P30613)
inactive: erlotinib 0.01 | [1] -0.004 | [2] 0.042 | [3] -0.006 | [4] -0.02 | [5] -0.001 | [6] -0.032 | [7] 0.023 | [8] -0.025 | [9] 0.041

PLEKHA5 isoform 6 (UniProt Q9HAU0)
inactive: erlotinib 0.09 | [1] 0.09 | [2] 0.073 | [3] 0.115 | [4] 0.059 | [7] 0.046 | [8] 0.04 | [9] -0.096

PICALM (UniProt Q13492)
inactive: erlotinib 0.03 | [1] 0.012 | [2] 0.028 | [3] -0.02 | [4] 0.019 | [5] 0.01 | [6] 0.03 | [7] -0.018 | [8] 0.014 | [9] 0.041

PI4K2B (UniProt Q8TCG2)
inactive: erlotinib -0.003 | [1] -0.008 | [3] 0.065 | [4] 0.004 | [5] 0.016 | [6] -0.019 | [7] -0.007 | [8] 0.048 | [9] -0.173

PLA2G15 (UniProt Q8NCC3)
inactive: erlotinib 0.064 | [1] 0.004 | [2] 0.038 | [3] -0.02 | [4] 0.026 | [5] 0.035 | [6] -0.007 | [7] 0.021 | [8] 0.01 | [9] 0.052

Copied from the listing (2 entries):
PICALM (UniProt Q13492)
inactive: erlotinib 0.03 | [1] 0.012 | [2] 0.028 | [3] -0.02 | [4] 0.019 | [5] 0.01 | [6] 0.03 | [7] -0.018 | [8] 0.014 | [9] 0.041

PI4K2B (UniProt Q8TCG2)
inactive: erlotinib -0.003 | [1] -0.008 | [3] 0.065 | [4] 0.004 | [5] 0.016 | [6] -0.019 | [7] -0.007 | [8] 0.048 | [9] -0.173

Next records follow:

PEX5 isoform 4 (UniProt P50542)
inactive: erlotinib -0.133 | [1] -0.143 | [2] -0.036 | [3] 0.076 | [4] 0.048 | [6] 0.016 | [7] -0.082 | [8] 0.097 | [9] -0.078
